In PMC12680359:
No constants are given. Whether binding was seen depends on the method and setting. In cells and extracts the contact can be indirect. Here binding means that the protein was enriched with, or labelled near, the bait; the list need not be complete.

Chains of the proteins cited; added tags and fusions are not shown.
UniProt Q44636: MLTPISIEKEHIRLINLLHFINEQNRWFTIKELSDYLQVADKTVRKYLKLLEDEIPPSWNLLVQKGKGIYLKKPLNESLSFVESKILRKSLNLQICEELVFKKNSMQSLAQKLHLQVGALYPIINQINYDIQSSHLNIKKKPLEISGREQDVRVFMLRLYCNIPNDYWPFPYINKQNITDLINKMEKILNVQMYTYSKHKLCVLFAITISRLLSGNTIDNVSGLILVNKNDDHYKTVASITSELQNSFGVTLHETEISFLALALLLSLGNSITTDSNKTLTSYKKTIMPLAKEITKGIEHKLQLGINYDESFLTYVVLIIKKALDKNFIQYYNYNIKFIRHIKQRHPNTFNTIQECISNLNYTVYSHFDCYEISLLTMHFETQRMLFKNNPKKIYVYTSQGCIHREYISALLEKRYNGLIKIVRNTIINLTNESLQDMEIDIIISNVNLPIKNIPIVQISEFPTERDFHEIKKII

Molecular target: AtxA-His6 (AtxA-TEV-His6, expressed from pAMY1-atxA) (B. anthracis) (UniProt Q44636)
Experiment: affinity purification with mass spectrometry; […]; binding […] at 4°C; […]

B1: pyruvate carboxylase Pyc (enzyme, UniProt A0A6L7HFM3 1-1148)
chain: MTKLQRIQKVLVANRGEIAIRVFRACSELGLKTVAIYSKEDSGSYHRYKADESYLVGEGKKPIDAYLDIEGIIEIAKSNHVDAIHPGYGFLSENIQFAKRCEEEGIIFIGPKSKHLDMFGDKVKARTQAQLAQIPVIPGSDGPVDSLEEVKEFAEKYDYPIIIKASLGGGGRGMRIVRTSEELRESYNRAKSEAKAAFGNDEVYVEKFVEKPKHIEVQILADEEGNVVHLYERDCSVQRRHQKVVEIAPSVSLSDDLRQRICEAAVKLTKNVNYLNAGTVEFLVKDDNFYFIEVNPRVQVEHTITEMITGVDIVQSQILIADGHALHSKMVGVPKQEEVVVHGFAIQSRVTTEDPLNNFMPDTGKIMAYRSGGGFGVRLDTGNSFQGAVIAPYYDSLLVKVTTWALTFEQAAAKMERNLKEFRIRGIKTNIPFLENVVKHKNFLSGEYDTSFIDASPELFLFPKRKDRGTKMLNYIGTVTVNGFPGVGKKEKPIFPDARIPNVLHSEPIQNGTKQILDERGADGLVKWVQDQKRVLLTDTTFRDAHQSLLATRIRTKDLHQIAEPTARMLPNLFSAEMWGGATFDVAYRFLKEDPWERLLDLREKMPNVLFQMLLRSSNAVGYKNYPDNLIQKFVECSAQAGIDVFRIFDSLNWVEGMRVAIDAVRDTGKIAEATMCYTGDIHDPMRSKYDLNYYKNLAKELEVSGAHILGIKDMAGLLKPNAAYDLVSALKETVSIPIHLHTHDTSGNGILTYTKAIEAGVDIVDVAVSSMAGQTSQPSANTLYYALGGNERQPDVNIDSLEKLSHYWEDVRKYYAPFESGMNAPHTEVYMHEMPGGQYSNLQQQAKVVGLGDRFDEVKVMYRRVNDMFGDIVKVTPSSKVVGDMALFMVQNHLTEQDVLERGHSMDFPGSVVEMFSGDLGQPYGGFPKKLQEIILKGKEPLTVRPGELLEPVDFDALKEELFHKLGREVTMFDVVAYALYPKVFMDYEKVAELYGNVSVLDTPTFFYGMRLGEEIDVEIEQGKTLMVKLVSIGELQPDGNRVLYLEFNGQPREIVVKDESVKATVAQRVKGNRENPNHISATMPGTVIKVVVKEGDEVKKGDSMAITEAMKMETTVQAPFNGKVKKVYVNDGDAIQTGDLLIELDH
  binding: binds
